Test results as given in PMC5717335.
No constants are given. Whether binding was seen depends on the method and setting. In cells and extracts the contact can be indirect. Some binding calls cover weakened binding; strength is not graded here.

Target: Bod1-GST (human), Q96IK1
Assay: pull-down; purified Bod1-GST on Sepharose beads incubated with mitotic HeLa cell lysates; immunoblot for Ndc80, Nuf2 and Spc24; only the target purified
Details: remark: other sources report otherwise

- binding: binds
B1: Ndc80 (Nuclear division cycle protein 80), O14777 1-642 (protein)
chain: MKRSSVSSGGAGRLSMQELRSQDVNKQGLYTPQTKEKPTFGKLSINKPTSERKVSLFGKRTSGHGSRNSQLGIFSSSEKIKDPRPLNDKAFIQQCIRQLCEFLTENGYAHNVSMKSLQAPSVKDFLKIFTFLYGFLCPSYELPDTKFEEEVPRIFKDLGYPFALSKSSMYTVGAPHTWPHIVAALVWLIDCIKIHTAMKESSPLFDDGQPWGEETEDGIMHNKLFLDYTIKCYESFMSGADSFDEMNAELQSKLKDLFNVDAFKLESLEAKNRALNEQIARLEQEREKEPNRLESLRKLKASLQGDVQKYQAYMSNLESHSAILDQKLNGLNEEIARVELECETIKQENTRLQNIIDNQKYSVADIERINHERNELQQTINKLTKDLEAEQQKLWNEELKYARGKEAIETQLAEYHKLARKLKLIPKGAENSKGYDFEIKFNPEAGANCLVKYRAQVYVPLKELLNETEEEINKALNKKMGLEDTLEQLNAMITESKRSVRTLKEEVQKLDDLYQQKIKEAEEEDEKCASELESLEKHKHLLESTVNQGLSEAMNELDAVQREYQLVVQTTTEERRKVGNNLQRLLEMVATHVGSVEKHLEEQIAKVDREYEECMSEDLSENIKEIRDKYEKKATLIKSSEE
